Data reported in patent US4937266A, “Inhibitory agent of hepatic fibrosis” (priority 1988, dated 1990).

Experiment: in vivo
Conditions: mouse, po

For `CC(C)(CO)[C@@H](O)C(=O)NCCC(=O)NCCSSCCNC(=O)CCNC(=O)[C@H](O)C(C)(C)CO` [Pantethine, D-bis-(N-pantothenyl-β-aminoethyl)-disulfide], the LD50 was > 10000 mg/kg.
